Results are given in words; binding and its absence hold for the method and conditions named. Binding seen in cells or lysates may run through a third protein. Here binding means that the protein was enriched with, or labelled near, the bait; the list need not be complete. Sequences can lack the tags named with a protein.
T1: S/FLAG/SBP‐tagged TPD52 (UniProt P55327)
T1 sequence: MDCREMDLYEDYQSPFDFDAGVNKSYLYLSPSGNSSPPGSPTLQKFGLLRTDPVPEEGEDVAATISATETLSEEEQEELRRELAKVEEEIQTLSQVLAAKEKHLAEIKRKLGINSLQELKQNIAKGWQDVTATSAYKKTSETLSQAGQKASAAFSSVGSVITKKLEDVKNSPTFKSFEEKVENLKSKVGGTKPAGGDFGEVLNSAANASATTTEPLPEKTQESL

Protein sequences, listed by entry. Tags and fused reporters are not part of them.
UniProt O43399: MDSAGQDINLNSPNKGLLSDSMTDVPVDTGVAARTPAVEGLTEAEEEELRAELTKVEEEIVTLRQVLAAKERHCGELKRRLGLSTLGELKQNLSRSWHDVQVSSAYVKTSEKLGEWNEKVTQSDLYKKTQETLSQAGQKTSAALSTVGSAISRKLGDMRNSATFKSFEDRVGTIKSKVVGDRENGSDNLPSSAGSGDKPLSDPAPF
UniProt Q96SB4: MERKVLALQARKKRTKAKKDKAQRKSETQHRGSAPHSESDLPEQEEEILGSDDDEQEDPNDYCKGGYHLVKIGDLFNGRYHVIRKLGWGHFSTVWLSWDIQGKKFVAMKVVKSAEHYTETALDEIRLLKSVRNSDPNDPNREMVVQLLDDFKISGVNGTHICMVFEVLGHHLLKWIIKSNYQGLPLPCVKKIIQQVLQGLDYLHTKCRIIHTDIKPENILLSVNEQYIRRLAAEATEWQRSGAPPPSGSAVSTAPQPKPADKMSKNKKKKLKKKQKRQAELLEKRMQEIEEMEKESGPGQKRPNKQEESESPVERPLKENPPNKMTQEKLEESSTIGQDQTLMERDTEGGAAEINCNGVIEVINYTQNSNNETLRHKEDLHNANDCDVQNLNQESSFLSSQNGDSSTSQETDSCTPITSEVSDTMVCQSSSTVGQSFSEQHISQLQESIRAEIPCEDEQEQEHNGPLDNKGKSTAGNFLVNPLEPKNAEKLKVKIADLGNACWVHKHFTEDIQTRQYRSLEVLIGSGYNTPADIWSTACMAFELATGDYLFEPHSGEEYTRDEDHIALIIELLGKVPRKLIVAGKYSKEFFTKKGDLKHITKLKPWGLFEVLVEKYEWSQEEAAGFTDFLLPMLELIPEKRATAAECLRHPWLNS
UniProt P78362: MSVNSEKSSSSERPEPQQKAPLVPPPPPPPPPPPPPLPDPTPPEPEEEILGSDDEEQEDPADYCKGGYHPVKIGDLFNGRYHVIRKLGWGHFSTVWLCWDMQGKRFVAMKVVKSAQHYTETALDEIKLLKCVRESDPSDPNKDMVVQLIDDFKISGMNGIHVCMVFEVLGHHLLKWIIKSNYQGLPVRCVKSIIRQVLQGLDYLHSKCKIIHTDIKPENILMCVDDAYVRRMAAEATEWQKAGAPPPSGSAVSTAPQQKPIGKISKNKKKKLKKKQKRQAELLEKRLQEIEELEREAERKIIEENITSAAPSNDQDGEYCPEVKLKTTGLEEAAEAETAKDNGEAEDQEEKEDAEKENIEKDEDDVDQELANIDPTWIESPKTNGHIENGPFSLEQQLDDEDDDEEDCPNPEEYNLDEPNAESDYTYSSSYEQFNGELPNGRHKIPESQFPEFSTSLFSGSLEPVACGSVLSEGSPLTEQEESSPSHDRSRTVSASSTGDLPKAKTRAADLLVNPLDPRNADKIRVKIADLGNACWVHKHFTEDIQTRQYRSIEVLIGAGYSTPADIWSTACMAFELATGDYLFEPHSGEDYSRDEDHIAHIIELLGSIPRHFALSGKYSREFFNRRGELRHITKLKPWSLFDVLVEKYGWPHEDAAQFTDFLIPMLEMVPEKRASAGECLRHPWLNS


target: T1, S/FLAG/SBP‐tagged TPD52; test: affinity purification with mass spectrometry; tandem affinity purification of S/FLAG/SBP-tagged TPD52 from HEK293T lysate (NETN buffer): streptavidin sepharose, elution with 2 mM biotin, S-protein agarose, 4°C; SDS-PAGE, mass spectrometry

| binding | Molecule |
| --- | --- |
| binds | TPD52L2 (from UniProt O43399 1-206) |
| binds | TPD52L1 (protein, UniProt Q16890 1-204) MEAQAQGLLETEPLQGTDEDAVASADFSSMLSEEEKEELKAELVQLEDEITTLRQVLSAKERHLVEIKQKLGMNLMNELKQNFSKSWHDMQTTTAYKKTHETLSHAGQKATAAFSNVGTAISKKFGDMSYSIRHSISMPAMRNSPTFKSFEERVETTVTSLKTKVGGTNPNGGSFEEVLSSTAHASAQSLAGGSRRTKEEELQC |

The next lines start with the molecule.

| Molecule | binding |
| --- | --- |
| SRPK1 (from UniProt Q96SB4 1-655) | binds |
| SRPK2 (from UniProt P78362 1-688) | binds |
